The results in this text go back to PMC8964759, “Exploring a blue-light-sensing transcription factor to double the peak productivity of oil in Nannochloropsis oceanica”.

Construct, isoform or probe ends are uncertain for at least one entry. Whether high values mean tight binding is not given here for every scale. Tags and fusion partners may be left off the protein sequences shown.

This series deals with T1, MBP-NobZIP77 (Nannochloropsis oceanica) (UniProt A0A8F2IEU3).
T1 sequence (looked up, limits assumed): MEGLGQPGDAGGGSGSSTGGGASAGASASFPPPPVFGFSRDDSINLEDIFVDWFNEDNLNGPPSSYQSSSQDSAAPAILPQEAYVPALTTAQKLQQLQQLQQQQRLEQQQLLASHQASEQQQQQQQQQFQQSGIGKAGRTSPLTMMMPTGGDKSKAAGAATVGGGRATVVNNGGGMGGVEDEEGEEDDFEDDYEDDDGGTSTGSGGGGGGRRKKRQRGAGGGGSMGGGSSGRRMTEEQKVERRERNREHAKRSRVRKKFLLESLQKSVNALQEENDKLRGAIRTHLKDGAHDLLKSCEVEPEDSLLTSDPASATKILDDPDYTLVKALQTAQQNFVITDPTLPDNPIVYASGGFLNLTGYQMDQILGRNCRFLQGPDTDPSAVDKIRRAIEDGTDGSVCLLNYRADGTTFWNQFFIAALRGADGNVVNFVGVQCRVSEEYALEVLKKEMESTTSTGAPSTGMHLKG
Briefly: EMSA. The following applies: lowest protein concentration with visible shift (not a Kd), 5 nM probe, LightShift Chemiluminescent EMSA kit binding buffer (composition, salt and pH not stated), 30 min, recombinant protein, protein details: MBP (pMAL-p4X), label: 5' biotin. (A gel shift assay detects complexes by their altered migration in electrophoresis.)

Consider “TATGCTCACGTGCGCACACGTACCCCACTATGCTCACGTGCGCACACGTACCCCAC (double strand) [pNoDGAT2B probe (g6725)]”, for which the binding signal turned out to be 1.5 mM (continuous blue light (450 nm)) and 0.75 mM (continuous white light).
